No constants are given. Whether binding was seen depends on the method and setting. Binding seen in cells or lysates may run through a third protein. Some entries that bind do so weakly or less than the wild type. For some assays here: Tags and fused reporters may be left off the sequences shown.
How the values were obtained:
[1] = target: T1, neuronal pentraxin 2 (Nptx2), purified recombinant, His-tagged (UniProt P47972); assay: proximity ligation
T1 sequence: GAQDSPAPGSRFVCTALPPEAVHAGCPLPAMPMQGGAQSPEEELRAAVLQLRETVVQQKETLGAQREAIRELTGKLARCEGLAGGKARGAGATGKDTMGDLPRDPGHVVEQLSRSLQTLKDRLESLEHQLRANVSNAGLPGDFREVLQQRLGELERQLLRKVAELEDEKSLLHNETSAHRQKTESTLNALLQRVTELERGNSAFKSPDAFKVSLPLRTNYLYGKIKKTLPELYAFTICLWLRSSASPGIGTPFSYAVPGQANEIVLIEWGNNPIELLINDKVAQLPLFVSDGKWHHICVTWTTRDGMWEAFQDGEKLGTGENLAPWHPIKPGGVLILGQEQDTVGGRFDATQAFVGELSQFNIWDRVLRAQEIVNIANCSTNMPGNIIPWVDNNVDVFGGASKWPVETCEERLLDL

Protein sequences, listed by entry. Tags and fused reporters are not part of them. Lines headed by an entry give the natural chain unless they say otherwise; changes in a name come on top.
UniProt P31720: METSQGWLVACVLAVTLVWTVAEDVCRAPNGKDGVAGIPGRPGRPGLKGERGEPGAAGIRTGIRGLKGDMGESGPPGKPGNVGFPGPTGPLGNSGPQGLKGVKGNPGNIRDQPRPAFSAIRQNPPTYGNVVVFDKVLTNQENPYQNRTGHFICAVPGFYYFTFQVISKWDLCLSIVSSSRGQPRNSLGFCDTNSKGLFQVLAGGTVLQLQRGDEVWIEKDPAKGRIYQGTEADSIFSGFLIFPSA
UniProt P98086: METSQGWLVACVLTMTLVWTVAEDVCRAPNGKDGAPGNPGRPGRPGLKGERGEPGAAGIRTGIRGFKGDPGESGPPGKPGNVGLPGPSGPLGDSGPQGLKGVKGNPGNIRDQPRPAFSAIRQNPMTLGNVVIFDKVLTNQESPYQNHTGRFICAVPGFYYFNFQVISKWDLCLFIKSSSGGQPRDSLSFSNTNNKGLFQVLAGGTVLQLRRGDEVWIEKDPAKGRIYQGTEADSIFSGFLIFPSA

[2] = target: T2, Nptx2 in mouse brain lysate (mouse (endogenous in brain)) (UniProt O70340); assay: proximity ligation
T2 sequence: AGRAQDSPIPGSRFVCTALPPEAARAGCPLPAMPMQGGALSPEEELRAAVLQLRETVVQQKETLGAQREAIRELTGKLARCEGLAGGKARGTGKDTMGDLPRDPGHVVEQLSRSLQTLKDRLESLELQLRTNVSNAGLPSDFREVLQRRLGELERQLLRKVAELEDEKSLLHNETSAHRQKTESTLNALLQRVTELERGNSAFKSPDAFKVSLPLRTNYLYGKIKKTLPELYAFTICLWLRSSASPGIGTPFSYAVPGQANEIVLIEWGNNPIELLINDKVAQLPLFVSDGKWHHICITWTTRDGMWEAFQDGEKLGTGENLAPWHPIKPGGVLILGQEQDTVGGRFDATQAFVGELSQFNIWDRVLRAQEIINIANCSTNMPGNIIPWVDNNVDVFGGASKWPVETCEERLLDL

Row | Substance | binding [1] | binding [2]
1 | C1q in the medium of rat neuron-microglia co-cultures (from UniProt P31720 23-245; P31721 26-253; P31722 29-245) (complex) | binds | 
2 | C1q in mouse brain lysate (from UniProt P98086 23-245; P14106 26-253; Q02105 30-246) (complex) |  | binds

From paper doi:10.1101/2022.09.22.509106
